PubChem BioAssay AID1508597, Cure First – 2020

Assay: 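Survival screen with siRNA in ovarian cancer cells derived from patients, with or without rucaparib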 (primary screen)
System: human ovarian carcinoma lines grown from tumours: OCI-P5x (papillary serous) and OCI-C5x (clear cell)
Reagents: siRNA pool against human genes, 1.25 pmol siRNA per well
Time to read-out: 72 h or 96 h, depending on the cell culture
Conditions: rucaparib 20 µM (about IC30) or vehicle, present until read-out
Rucaparib or vehicle: Vehicle
Cell line: OCI-P5x (serous)
Measured: 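Luminescent ATP-based viability assay read 72 or 96 h after transfection, depending on culture, given as normalised percent viability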
Reading the numbers: viability, normalised: higher = more viable cells remaining
Call rule: 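Active when normalised viability falls below 80 percent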
Calls: active = viability under 80%; inactive = viability 80% or more
This is a random part of the about 2,100 reagents, in one setting of the screen. 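Calls flag viability under 80% in either arm, not effects specific to rucaparib; the reference for percent is not stated.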 Unmarked entries are inactive. The record does not give: the 100% reference.

Gene	technical replicate	viability, normalised (%)
GNAT1 (G protein subunit alpha transducin 1)	1	58.4 (active)
GNAT1 (G protein subunit alpha transducin 1)	2	57.2 (active)
GNAT1 (G protein subunit alpha transducin 1)	3	69 (active)
SOD2 (superoxide dismutase 2)	1	40.4 (active)
SOD2 (superoxide dismutase 2)	2	44.4 (active)
SOD2 (superoxide dismutase 2)	3	51.5 (active)
HDGFL1 (HDGF like 1)	1	62.2 (active)
HDGFL1 (HDGF like 1)	2	59.4 (active)
HDGFL1 (HDGF like 1)	3	61 (active)
DGKD (diacylglycerol kinase delta)	1	111
DGKD (diacylglycerol kinase delta)	2	81.7
DGKD (diacylglycerol kinase delta)	3	93.1
PSENEN (presenilin enhancer, gamma-secretase subunit)	1	73.4 (active)
PSENEN (presenilin enhancer, gamma-secretase subunit)	2	67 (active)
PSENEN (presenilin enhancer, gamma-secretase subunit)	3	81.6
PTPN9 (protein tyrosine phosphatase non-receptor type 9)	1	81.7
PTPN9 (protein tyrosine phosphatase non-receptor type 9)	2	55.7 (active)
PTPN9 (protein tyrosine phosphatase non-receptor type 9)	3	84.4
ITGA4 (integrin subunit alpha 4)	1	37.6 (active)
ITGA4 (integrin subunit alpha 4)	2	50.5 (active)
ITGA4 (integrin subunit alpha 4)	3	96.6
KDM4C (lysine demethylase 4C)	1	59 (active)
KDM4C (lysine demethylase 4C)	2	69.1 (active)
KDM4C (lysine demethylase 4C)	3	69.1 (active)
MRE11 (MRE11 double strand break repair nuclease)	1	76.8 (active)
MRE11 (MRE11 double strand break repair nuclease)	2	79.1 (active)
MRE11 (MRE11 double strand break repair nuclease)	3	90.4
DMBT1 (deleted in malignant brain tumors 1)	1	63.6 (active)
DMBT1 (deleted in malignant brain tumors 1)	2	56 (active)
DMBT1 (deleted in malignant brain tumors 1)	3	57.7 (active)
MOS (MOS proto-oncogene, serine/threonine kinase)	1	80.6
MOS (MOS proto-oncogene, serine/threonine kinase)	2	59.6 (active)
MOS (MOS proto-oncogene, serine/threonine kinase)	3	80.9

The list goes on (4 carried over from the part before).
Gene	technical replicate	viability, normalised (%)
DMBT1 (deleted in malignant brain tumors 1)	3	57.7 (active)
MOS (MOS proto-oncogene, serine/threonine kinase)	1	80.6
MOS (MOS proto-oncogene, serine/threonine kinase)	2	59.6 (active)
MOS (MOS proto-oncogene, serine/threonine kinase)	3	80.9
RPS6KA4 (ribosomal protein S6 kinase A4)	1	86.4
RPS6KA4 (ribosomal protein S6 kinase A4)	2	66.6 (active)
RPS6KA4 (ribosomal protein S6 kinase A4)	3	96.6
WWC2 (WW and C2 domain containing 2)	1	42.6 (active)
WWC2 (WW and C2 domain containing 2)	2	68.5 (active)
WWC2 (WW and C2 domain containing 2)	3	66.6 (active)
MSH4 (mutS homolog 4)	1	74.9 (active)
MSH4 (mutS homolog 4)	2	92
MSH4 (mutS homolog 4)	3	81.7
MOV10 (Mov10 RNA helicase)	1	64.8 (active)
MOV10 (Mov10 RNA helicase)	2	62.5 (active)
MOV10 (Mov10 RNA helicase)	3	106
CBX2 (chromobox 2)	1	68.1 (active)
CBX2 (chromobox 2)	2	77.4 (active)
CBX2 (chromobox 2)	3	80
STRADA (STE20 related adaptor alpha)	1	77.8 (active)
STRADA (STE20 related adaptor alpha)	2	78.5 (active)
STRADA (STE20 related adaptor alpha)	3	66.8 (active)
NCOA2 (nuclear receptor coactivator 2)	1	57.2 (active)
NCOA2 (nuclear receptor coactivator 2)	2	51.9 (active)
NCOA2 (nuclear receptor coactivator 2)	3	74.3 (active)
PMS2P4	1	86.8
PMS2P4	2	111
PMS2P4	3	108
STRADB (STE20 related adaptor beta)	1	68 (active)
STRADB (STE20 related adaptor beta)	2	78.8 (active)
STRADB (STE20 related adaptor beta)	3	80.8
TAOK1 (TAO kinase 1)	1	83.9
TAOK1 (TAO kinase 1)	2	96.6
TAOK1 (TAO kinase 1)	3	91.8
RPL11 (ribosomal protein L11)	1	45.7 (active)
RPL11 (ribosomal protein L11)	2	45.1 (active)
RPL11 (ribosomal protein L11)	3	35.4 (active)
BRPF3 (bromodomain and PHD finger containing 3)	1	72.1 (active)
BRPF3 (bromodomain and PHD finger containing 3)	2	73.9 (active)
BRPF3 (bromodomain and PHD finger containing 3)	3	74.6 (active)
MAEL (maelstrom spermatogenic transposon silencer)	1	81.8
MAEL (maelstrom spermatogenic transposon silencer)	2	94.4
MAEL (maelstrom spermatogenic transposon silencer)	3	79.5 (active)
ASF1B (anti-silencing function 1B histone chaperone)	1	65.4 (active)
ASF1B (anti-silencing function 1B histone chaperone)	2	62.7 (active)
ASF1B (anti-silencing function 1B histone chaperone)	3	58.4 (active)
